Assay results from patent US6022851A, “Lantibiotic related to actagardine, and processes for the preparation and use thereof” (priority 1997, dated 2000).
Values after ≈ are worked out from the molar mass of the structure shown. Where two headings read alike, the source gives them in different places. Not every detail of the peptide structures is certain; ends, links or a residue may be inferred.

Columns and labels:
Type in all cases: cell-based
S. pyogenes A561 = conditions: incubation time 24 h
From the text: (§1) Tables 4 to 6 show the in-vitro antibacterial activity (MIC values[μg/ml]) of the actagardine (Acta) and of the compounds according to the invention.

S. aureus Exp54146 = conditions: incubation time 24 h
From the text: as §1

E. Coli = conditions: incubation time 24 h
From the text: as §1

S. aureus SG511 = conditions: incubation time 24 h
From the text: as §1

S. aureus 011CB20 = assay: in-vitro antibacterial activity (MIC), incubation time 18 h; conditions: incubation time 18 h
S. epidermidis 012GO20 = assay: as above; conditions: incubation time 18 h
From the text: as §1

S. aureus 011HT3 = assay: as above; conditions: incubation time 18 h
From the text: as §1

E. faecalis 02D2HM9 = assay: as above; conditions: incubation time 18 h
From the text: as §1

S. pyogenes 02A1UC1 = assay: as above; conditions: incubation time 18 h
From the text: as §1

S. aureus 011DU5 = assay: as above; conditions: incubation time 18 h
From the text: as §1

Strepto gr. G 02G0CB2 = assay: as above; conditions: incubation time 18 h
From the text: as §1

S. mitis 02mitGR16 = assay: as above; conditions: incubation time 18 h
From the text: as §1

S. aureus 011HT1 = assay: as above; conditions: incubation time 18 h
From the text: as §1

[1] = system: Staph. coag. negative 012HT5; assay: as above; conditions: incubation time 18 h
From the text: as §1

E. faecalis 02D2DU18 = assay: as above; conditions: incubation time 18 h
From the text: as §1

S. milleri 02milGR12 = assay: as above; conditions: incubation time 18 h
From the text: as §1

S. pneumoniae 030BI2 = assay: as above; conditions: incubation time 18 h
From the text: as §1

S. pyogenes O2A1SJ1 = assay: as above; conditions: incubation time 18 h
From the text: as §1

E. faecalis 02D2UC5 = assay: as above; conditions: incubation time 18 h
From the text: as §1

E. faecalis 02D2HT10 = assay: as above; conditions: incubation time 18 h
From the text: as §1

S. aureus 0121O64 = assay: as above; conditions: incubation time 18 h
From the text: as §1

S. epidermidis 012GO42 = assay: as above; conditions: incubation time 18 h
From the text: as §1

S. pyogenes 02A1FI6 = assay: as above; conditions: incubation time 18 h
From the text: as §1

S. aureus 011HT18 = assay: as above; conditions: incubation time 18 h
From the text: as §1

CC[C@H](C)[C@@H]1NC(=O)C2NC(=O)[C@H](CC(C)C)NC(=O)C(NC(=O)C3CSCC(NC(=O)[C@@H](N)CCCCN)C(=O)N[C@@H](CO)C(=O)NCC(=O)N[C@@H](Cc4c[nH]c5ccccc45)C(=O)N[C@@H](C(C)C)C(=O)N3)C(C)SCC(NC(=O)[C@H](CCC(=O)O)NC1=O)C(=O)NCC(=O)NC1C(=O)N[C@@H](C(C)C)C(=O)N[C@@H]([C@@H](C)CC)C(=O)NC(CSC2C)C(=O)N[C@@H](C)C(=O)NC(C(=O)O)C[S+]([O-])C1C (stereo partly drawn) [Lys--Acta, Lys(0)-actagardine]
MIC values (S. pyogenes A561): <= 0.04 μg/ml | MIC values (S. aureus Exp54146): 10 µg/mL (≈ 4.95 µM) | MIC values (E. Coli): > 40 µg/mL | MIC values (S. aureus SG511; S. aureus SG511 + 10% serum): 2.5 µg/mL | MIC values (S. aureus SG511; S. aureus SG511): 1.2 µg/mL (≈ 0.595 µM) | MIC values (S. aureus 011CB20): > 40 µg/mL | MIC values (S. epidermidis 012GO20): > 40 µg/mL | MIC values (S. aureus 011HT3; S. aureus 011HT3 + 10% serum): 10 µg/mL | MIC values (S. aureus 011HT3; S. aureus 011HT3 + 50% serum): 10 µg/mL | MIC values (S. aureus 011HT3; S. aureus 011HT3): 10 µg/mL (≈ 4.95 µM) | MIC values (E. faecalis 02D2HM9): > 40 µg/mL | MIC values (S. pyogenes 02A1UC1): <= 0.04 μg/ml | MIC values (S. aureus 011DU5): 10 µg/mL (≈ 4.95 µM) | MIC values (Strepto gr. G 02G0CB2): 5 µg/mL (≈ 2.48 µM) | MIC values (S. mitis 02mitGR16): 10 µg/mL (≈ 4.95 µM) | MIC values (S. aureus 011HT1): 0.6 µg/mL (≈ 0.297 µM) | MIC values [1]: > 40 µg/mL | MIC values (E. faecalis 02D2DU18): 5 µg/mL (≈ 2.48 µM) | MIC values (S. milleri 02milGR12): 40 µg/mL (≈ 19.8 µM) | MIC values (S. pneumoniae 030BI2): 2.5 µg/mL (≈ 1.24 µM) | MIC values (S. pyogenes O2A1SJ1): <= 0.04 μg/ml | MIC values (E. faecalis 02D2UC5): 40 µg/mL (≈ 19.8 µM) | MIC values (E. faecalis 02D2HT10): > 40 µg/mL | MIC values (S. aureus 0121O64): > 40 µg/mL | MIC values (S. epidermidis 012GO42): > 40 µg/mL | MIC values (S. pyogenes 02A1FI6): <= 0.04 μg/ml | MIC values (S. aureus 011HT18): > 40 µg/mL
